# Results: the supplement of paper PMC4635364
# Where a name gives a salt, the structure may show the parent alone. This is one part of the list. Single values are uncertain here, since repeats match poorly.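 ReNCell VM, a human fetal ventral-midbrain neural progenitor line, was differentiated without mitogens. Blinded raters scored images stained for doublecortin (early neurons) or tyrosine hydroxylase (dopaminergic neurons) against untreated wells (0 = no change). Scores were averaged across repeats and both raters, and compounds averaging 2 or more were selected as hits for retesting.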
# Legend:
# ReNCell VM [1] = experiment: neuronal differentiation score (DCX+ cell fraction vs untreated, manual image score) (score (-3 to 3)); higher = more neuronal differentiation; details: 2 uM, 2 weeks
# ReNCell VM [2] = experiment: dopaminergic neuron differentiation score (TH+ cell fraction vs untreated, manual image score) (score (0 to 3)); higher = more TH+ dopaminergic neuron differentiation; details: 2 uM, 4 weeks, BDNF 10 ng/ml + GDNF 10 ng/ml
compound,measurement,setting,value
O=C(O)COCCN1CCN([C@H](c2ccccc2)c2ccc(Cl)cc2)CC1,neuronal differentiation score,ReNCell VM [1]; library: Spectrum,inactive: 0
same,dopaminergic neuron differentiation score,ReNCell VM [2]; library: Spectrum,inactive: 0
Cc1cn([C@H]2C[C@H](N=[N+]=[N-])[C@@H](CO)O2)c(=O)[nH]c1=O [3'-Azido-3'-deoxythymidine],neuronal differentiation score,ReNCell VM [1]; library: LOPAC,inactive: 0
same,dopaminergic neuron differentiation score,ReNCell VM [2]; library: LOPAC,inactive: 0
NS(=O)(=O)c1cc2c(cc1Cl)NC(CC1CCCC1)NS2(=O)=O (configuration not stated) [Cyclopenthiazide],neuronal differentiation score,ReNCell VM [1]; library: Prestwick,inactive: 0
same,dopaminergic neuron differentiation score,ReNCell VM [2]; library: Prestwick,inactive: 0
"Cc1cc(O)c2c(c1)C(=O)c1cccc(O)c1C2=O [1,8-dihydroxy-3-methylanthraquinone]",neuronal differentiation score,ReNCell VM [1]; library: Natural,inactive: 0
same,dopaminergic neuron differentiation score,ReNCell VM [2]; library: Natural,inactive: 0
C=C1[C@H]2CC[C@@]3(C)[C@H](c4ccoc4)OC(=O)C[C@]13O[C@H]1C[C@H](O)C(C)(C)[C@H](CC(=O)OC)[C@]12C [3-DEOXY-3beta-HYDROXYANGOLENSIC ACID METHYL ESTER],neuronal differentiation score,ReNCell VM [1]; library: Spectrum,inactive: 0
same,dopaminergic neuron differentiation score,ReNCell VM [2]; library: Spectrum,inactive: 0
"COc1cc2[nH]c(=O)[nH]c(=O)c2cc1OC [6,7-dimethoxy-quinazoline-2,4-diol]",neuronal differentiation score,ReNCell VM [1]; library: Natural,inactive: 0
same,dopaminergic neuron differentiation score,ReNCell VM [2]; library: Natural,inactive: 0
O=C(O)c1cc(O)c2c(c1)[C@H]([C@H]1c3cc(C(=O)O)cc(O)c3C(=O)c3c(O[C@@H]4O[C@H](CO)[C@@H](O)[C@H](O)[C@H]4O)cccc31)c1cccc(O[C@@H]3O[C@H](CO)[C@@H](O)[C@H](O)[C@H]3O)c1C2=O,neuronal differentiation score,ReNCell VM [1]; library: Spectrum,inactive: 0
same,dopaminergic neuron differentiation score,ReNCell VM [2]; library: Spectrum,inactive: 0
C#C[C@]1(O)CC[C@H]2[C@@H]3CCC4=CC(=O)CC[C@@H]4[C@H]3CC[C@@]21CC [Norgestrel-(-)-D],neuronal differentiation score,ReNCell VM [1]; library: Prestwick,inactive: 0
same,dopaminergic neuron differentiation score,ReNCell VM [2]; library: Prestwick,inactive: 0
CN(C)CCOC1=Cc2ccccc2Sc2ccc(Cl)cc21 [Zotepine],neuronal differentiation score,ReNCell VM [1]; library: Prestwick,inactive: 0
same,dopaminergic neuron differentiation score,ReNCell VM [2]; library: Prestwick,inactive: 0
COC(=O)C1=C(C)NC(C)=C(C(=O)OCCCN2CCC(c3ccccc3)(c3ccccc3)CC2)[C@H]1c1cccc([N+](=O)[O-])c1 [(S)-(+)-Niguldipine hydrochloride],neuronal differentiation score,ReNCell VM [1]; library: Tocriscreen,inactive: 0
same,dopaminergic neuron differentiation score,ReNCell VM [2]; library: Tocriscreen,inactive: 0
NC(=O)CC[C@H](N)C(=O)O,neuronal differentiation score,ReNCell VM [1]; library: Spectrum,inactive: 0
same,dopaminergic neuron differentiation score,ReNCell VM [2]; library: Spectrum,inactive: 0
O=C(O)[C@@H](O)[C@H](O)[C@H](O)[C@@H](O)C(=O)O,neuronal differentiation score,ReNCell VM [1]; library: Spectrum,inactive: 0
same,dopaminergic neuron differentiation score,ReNCell VM [2]; library: Spectrum,inactive: 0
CC(C)Cc1ccc([C@H](C)C(=O)O)cc1 [S(+)-Ibuprofen],neuronal differentiation score,ReNCell VM [1]; library: LOPAC,inactive: 0
same,dopaminergic neuron differentiation score,ReNCell VM [2]; library: LOPAC,inactive: 0
CCC(=O)O[C@]1(C(=O)SCF)[C@H](C)C[C@H]2[C@@H]3C[C@H](F)C4=CC(=O)C=C[C@]4(C)[C@@]3(F)[C@@H](O)C[C@@]21C,neuronal differentiation score,ReNCell VM [1]; library: Spectrum,inactive: 0
same,dopaminergic neuron differentiation score,ReNCell VM [2]; library: Spectrum,inactive: 0
C[C@H]1O[C@@H](O[C@H]2[C@@H](O)C[C@H](O[C@H]3[C@@H](O)C[C@H](O[C@H]4CC[C@@]5(C)[C@H](CC[C@@H]6[C@@H]5C[C@@H](O)[C@]5(C)[C@@H](C7=CC(=O)OC7)CC[C@]65O)C4)O[C@@H]3C)O[C@@H]2C)C[C@H](O)[C@@H]1O,neuronal differentiation score,ReNCell VM [1]; library: Spectrum,inactive: 0
same,dopaminergic neuron differentiation score,ReNCell VM [2]; library: Spectrum,inactive: 0
Cc1c[nH]c2ccccc12,neuronal differentiation score,ReNCell VM [1]; library: Spectrum,inactive: 0
same,dopaminergic neuron differentiation score,ReNCell VM [2]; library: Spectrum,inactive: 0
CC[C@H](c1ccc(O)cc1)[C@@H](CC)c1ccc(O)cc1,neuronal differentiation score,ReNCell VM [1]; library: Spectrum,inactive: 0
same,dopaminergic neuron differentiation score,ReNCell VM [2]; library: Spectrum,inactive: 0
Cc1cc(C)c(N(Cc2ccccc2)S(=O)(=O)c2ccc(OCCNC(=O)c3cc4ccccc4o3)cc2)c(C(=O)NO)c1,neuronal differentiation score,ReNCell VM [1]; library: Tocriscreen,inactive: 0
same,dopaminergic neuron differentiation score,ReNCell VM [2]; library: Tocriscreen,inactive: 0
CCN(CC)CC1CCN(c2ncc3ncnc(Nc4ccc(F)c(Cl)c4)c3n2)CC1 [BIBU 1361 dihydrochloride],neuronal differentiation score,ReNCell VM [1]; library: Tocriscreen,inactive: 0
same,dopaminergic neuron differentiation score,ReNCell VM [2]; library: Tocriscreen,inactive: 0
CC1(C)C(=O)C=CC2(C)C1C=CC1(C)C2CCC2(C)C(c3ccoc3)OC(=O)C3OC312 (configuration not stated),neuronal differentiation score,ReNCell VM [1]; library: Spectrum,inactive: 0
same,dopaminergic neuron differentiation score,ReNCell VM [2]; library: Spectrum,inactive: 0
CC(C)=CCCC1=CCC(C(=O)O)C(C(=O)O)C1 (configuration not stated),neuronal differentiation score,ReNCell VM [1]; library: Natural,inactive: 0
same,dopaminergic neuron differentiation score,ReNCell VM [2]; library: Natural,inactive: 0
Cc1nc(N=Nc2cc([N+](=O)[O-])ccc2Cl)c(COP(=O)(O)O)c(C=O)c1O [MRS 2211 sodium salt hydrate],neuronal differentiation score,ReNCell VM [1]; library: LOPAC,inactive: 0
same,dopaminergic neuron differentiation score,ReNCell VM [2]; library: LOPAC,inactive: 0
O=C(NCCN1CCCCC1)c1ccc(I)cc1 [N-[2-(Piperidinylamino)ethyl]-4-iodobenzamide],neuronal differentiation score,ReNCell VM [1]; library: Tocriscreen,inactive: 0
same,dopaminergic neuron differentiation score,ReNCell VM [2]; library: Tocriscreen,inactive: 0
CC1(C)CCC2=C(O1)c1ccccc1C(=O)C2=O [beta-Lapachone],neuronal differentiation score,ReNCell VM [1]; library: LOPAC,inactive: 0
same,dopaminergic neuron differentiation score,ReNCell VM [2]; library: LOPAC,inactive: 0
CCCCCCCC/C=C\CCCCCCCC(=O)NCCO [Oleylethanolamide],neuronal differentiation score,ReNCell VM [1]; library: Tocriscreen,inactive: 0
same,dopaminergic neuron differentiation score,ReNCell VM [2]; library: Tocriscreen,inactive: 0
CC1(C)C(=O)[C@H]2C[C@]3(O)C4=CC(=O)O[C@@H](c5ccoc5)[C@@]4(C)CCC3[C@](C)(C2=O)[C@H]1CC(=O)O (some centres not stated),neuronal differentiation score,ReNCell VM [1]; library: Spectrum,inactive: 0
same,dopaminergic neuron differentiation score,ReNCell VM [2]; library: Spectrum,inactive: 0
